{
  "source": "patent US9376369B2",
  "about": "“Anti-cholesterolemic compounds and methods of use” (priority 2006, dated 2016)",
  "assay": "Blood cholesterol lowering by reference drugs",
  "type": "in vivo",
  "details": "40 mg daily intake",
  "note": "At least one compound was matched to its structure with a doubt left.",
  "data": [
    {"smiles": "CCC(C)(C)C(=O)O[C@H]1C[C@@H](C)C=C2C=C[C@H](C)[C@H](CC[C@@H]3C[C@@H](O)CC(=O)O3)[C@H]21", "note": "[Simvastatin, simvastatin]", "values": [
      {"measurement": "blood levels of cholesterol", "value": "can lower"}
    ]}
  ]
}
